The source of these data is publication PMC2852416, “Modular Insulators: Genome Wide Search for Composite CTCF/Thyroid Hormone Receptor Binding Sites”.

In series [1] the test system is GST-CTCF-ZF. The series can be described thus: EMSA. The note with it: Zn2+; PBS pH 7.4, 5 mM MgCl2, 1 mM ZnCl2, 1 mM DTT, 0.1% NP-40, 10% glycerol, 200 ng/ul pdIdC, 25-100 ng/ul salmon sperm DNA, 20 min room temperature; 5% PAGE in TAE at 4 C; recombinant protein; protein details: GST; label: 32P.
Another series concerns GST. Description: EMSA. The note with it: PBS pH 7.4, 5 mM MgCl2, 1 mM ZnCl2, 1 mM DTT, 0.1% NP-40, 10% glycerol, 200 ng/ul pdIdC, 25-100 ng/ul salmon sperm DNA, 20 min room temperature; 5% PAGE in TAE at 4 C; recombinant protein; label: 32P.
In series [2] the test system is GST-CTCF-ZF. Description: competition with a labelled probe. The note with it: unlabelled competitor against F1 probe, Zn2+; PBS pH 7.4, 5 mM MgCl2, 1 mM ZnCl2, 1 mM DTT, 0.1% NP-40, 10% glycerol, 200 ng/ul pdIdC, 25-100 ng/ul salmon sperm DNA, 20 min room temperature; 5% PAGE in TAE at 4 C; recombinant protein; protein details: GST.

For at least one entry, the source does not settle the construct or the ends of the probe. For some assays here: A negative result means that nothing was seen under these conditions. For some assays here: At least one verdict rests on a figure or table, not on a statement of the authors.

For the sequence “AACAGCCATAAAACGCCGCCCAGAAGGGGGCAGTGACCAAAAGCACGTTC (double strand) [LRP1 CTS]”, in the series on GST-CTCF-ZF [1], the binding result is “binds”.

Turning to “AACCATGCTCAGCCACAGTGGCCTCTGCAGGTTGAGGAGGGATTCGCTGT (double strand) [PCK1 CTS]”, in the series with GST-CTCF-ZF [1], the binding result is recorded as “binds”.

On to “ACCCGAGGGCACCAGAGGGCACGAGA (double strand) [COMT DR4]”, for which the binding result in the series on GST is listed as “no binding”.

As to “AGCAAGTACAGTATCTGTCTGCCCCCTAGTGTAAGAGTCCTCGCTGCCTAAA (double strand) [NR2F1 CTS]”, the binding result in the series on GST-CTCF-ZF [1] is reported as “binds”.

As to “CCCATTACCAACTCCTAGTGCCCCCCTGTGGCCACTTTGAGAATCACACT (double strand) [PER1 CTS]”, the binding result in the series with GST-CTCF-ZF [1] was “binds”.

For the sequence “CCTGCTCTGTCTACCCGAGGGCACCAGAGGGCACGAGAAGGCTGGCTCCCTG (double strand) [COMT CTS1]”, the binding result in the series with GST-CTCF-ZF [1] is “binds”.

Take “CTAGATGAAGAAATTGAGATTTCTACTGGATAGCTATGGTATTTACGTGTCTA / AGCTTAGACACGTAAATACCATAGCTATCGAGTAGAAATCTCAATTTCTTCAT [F1mut CTS]”: in the series on GST-CTCF-ZF [2], the binding result was “no binding”.

As to “GAAGGCGTGCCCATGGCAACCGCTAGGTGGTGCCCGTACACCACCAGCCA (double strand) [BCL3 CTS]”, the binding result in the series on GST-CTCF-ZF [1] is on record as “binds”.

In the case of “GGTCACTGGCCTCCCTCCCGCCCCCTTCAGGACATTCTACTATCTTCTTA (double strand) [LMNA CTS]”, in the series on GST-CTCF-ZF [1], the binding result is recorded as “binds”.

Regarding “GGTTCCTCGAATCACACATGCGGCGCCCCCTGGTGGGGAGACCTTTCGGT (double strand) [ESRRA CTS]”, in the series on GST-CTCF-ZF [1], the binding result is “binds”.

In the case of “TGAACCTTGCCCCTCTGCAAACACAAGGGGGCGATGGTGGCACTCCAAGCAA / TTGCTTGGAGTGCCACCATCGCCCCCTTGTGTTTGCAGAGGGGCAAGGTT [COMT CTS2]”, the binding result in the series with GST-CTCF-ZF [1] was “binds”.
